Some results were stated once for a whole list of compounds, not compound by compound.
Tested on: murine L929
Assay: Cytotoxicity on murine L929 / selectivity index
Assay type: cell-based

Row | Compound | selectivity index (SI)
1 | [O-][S+](c1ccc(Cl)cc1)c1ccc2c(c1)B(O)OC2 (centres unmarked) [6-(4-chlorophenylsulfinyl)benzo[c][1,2]oxaborol-1(3H)-ol] | 75-100
2 | O=C(Nc1ccc2c(c1)B(O)OC2)c1ccccc1C(F)(F)F [N-(1-hydroxy-1,3-dihydrobenzo[c][1,2]oxaborol-6-yl)-2-(trifluoromethyl)benzamide] | 75-100

— patent publication US9493489B2, “Boron-containing small molecules as anti-protozoal agents” (Anacor Pharmaceuticals, Inc., priority 2008, dated 2016)
